Measured values: US6632794B1, “Insulin-like growth factor agonist molecules” (Genentech, Inc., priority 1997, dated 2003)
For some of these results: At least one compound was matched to its structure with a doubt left. Some results were stated once for a whole list of compounds, not compound by compound. Positions of bridges follow the written chain, without caps; N, C: chain ends. Residues, ends and D or L forms follow the SMILES beside them. No end group written: not given here.

Protein sequences, listed by entry. Tags and fused reporters are not part of them. Residues count along the entry.
UniProt P17936, 28-291: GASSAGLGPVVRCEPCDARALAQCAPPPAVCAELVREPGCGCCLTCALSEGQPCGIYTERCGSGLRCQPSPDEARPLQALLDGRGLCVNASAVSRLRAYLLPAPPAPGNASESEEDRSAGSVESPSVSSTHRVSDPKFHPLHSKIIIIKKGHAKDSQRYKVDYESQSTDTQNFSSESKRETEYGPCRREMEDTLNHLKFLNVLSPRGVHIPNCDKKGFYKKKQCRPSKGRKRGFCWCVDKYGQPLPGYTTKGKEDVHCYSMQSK

Experiments:
IGFBP-1 [1] = biological target: T1, IGFBP-1 (Homo sapiens, UniProt P08833); assay: BIAcore competition assay, IGFBP-1 binding to IGF-I
T1 construct: biotin (chemical label, EZ-LINK NHS-SS-Biotin)
T1 sequence (P08833 26-259): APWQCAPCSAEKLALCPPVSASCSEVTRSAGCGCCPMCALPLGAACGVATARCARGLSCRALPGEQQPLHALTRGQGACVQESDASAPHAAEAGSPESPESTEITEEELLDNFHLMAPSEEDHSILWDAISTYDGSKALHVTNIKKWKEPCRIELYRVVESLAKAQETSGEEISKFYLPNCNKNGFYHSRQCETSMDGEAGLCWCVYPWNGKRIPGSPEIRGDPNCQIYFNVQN
Procedure: Two series of synthetic peptide variants were generated to determine which side chains of the bp1-01 peptide might contribute directly to binding IGFBP-1. In the first series an alanine-scanning approach (Cunningham and Wells, Science, 244: 1081-1085 (1989)) was used to remove that portion of each side chain beyond the beta carbon. The contribution of these atoms to the free energy of binding of the peptide to IGFBP-1 was then assessed by measuring the potency (IC50) of the variant for inhibiting IGFBP-1 binding to IGF-I or IGF-II in a BIAcore™competition assay, analogous to that described for IGFBP-3 (see Example 7).
(§1) Substitutions at the N-terminus or C-terminus yielded affinity improvements. […] All of these peptides had similar or improved apparent affinity for IGFBP-1 as compared with bp1-01 and bp1-02 and are thus expected to increase the availability of IGF-I in an in vitro cell culture assay.

IGFBP-3 = IGFBP-3 (Homo sapiens, UniProt P17936); assay: Phage-ELISA competition assay of g3 clones; assay type: binding; details: monovalent g3 display clones; read-out: apparent affinity in phage-ELISA competition assays
IGFBP-1 [2] = biological target: T1, IGFBP-1; assay: Biotin-BP plate (ELISA) assay, biotinylated IGFBP-1 binding to IGF-I; details: 20 nM biotinylated IGFBP-1; IGF-I coated plate; read-out: ELISA IC50, inhibition of IGF-I binding to IGFBP-1
Procedure: 1. Biotin-BP Assay (for IGFBP-1 Binders)
For inhibition of IGFBP-1 binding, IGFBP-1 (as well as IGFBP-3 as a control) were biotinylated as described above. MAXISORP™plates were coated and blocked as described above, using 2 μg/mL IGF-I. In a separate plate, serial dilutions of peptide were premixed with a constant concentration (20 nM) of biotinylated IGFBP-1. After 20 min. at room temperature, the mixture was added to the IGF-I plate. The peptide/IGFBP mix was then removed and the plate was washed ten times with PBS buffer containing 0.05% TWEEN-20™ surfactant. Bound biotin-IGFBP-1 was then detected using streptavidin-conjugated horse radish peroxidase, and a chromogenic substrate.
A second series of peptides made use of non-natural amino acids to probe whether other structural features such as an added methyl group at the alpha carbon, or an isomer (D-alanine) could affect peptide binding to IGFBP-1.
as §1

Molecule | Kd (IGFBP-3) [nM] | also measured
CC(C)C[C@@H]1NC(=O)[C@H](Cc2c[nH]c3ccccc23)NC(=O)[C@H](CCC(N)=O)NC(=O)[C@H](CC(C)C)NC(=O)[C@@H]2CCCN2C(=O)CNC(=O)[C@H](C)NC(=O)[C@H](CCCNC(=N)N)NC(=O)[C@@H](NC(=O)[C@@H](NC(=O)[C@H](CCCNC(=N)N)NC(=O)[C@H](C)NC(=O)[C@@H](N)CCC(=O)O)C(C)C)CSSC[C@@H](C(=O)N[C@@H](CCC(=O)O)C(=O)N[C@@H](CCCCN)C(=O)N[C@@H](Cc2ccc(O)cc2)C(=O)N[C@@H](Cc2ccccc2)C(N)=O)NC1=O [bp1-20] (H-EARVCRAGPLQWLCEKYF-NH2; disulfide 5-14) | – | affinity improvement compared with bp1-14 (18-mer) (IGFBP-1 [1]): 2- to 3 fold
EESECFEGPGYVICGLVG [g3-4B3.3] | < 100 | –
SRAGPLQWLSEKYFG-NH2 (C-terminus assumed) | – | IC50 (IGFBP-1 [2]): > 10000 nM
VAWEVCWDRHDQGYICTTDS [4D3.11] | < 100 | –
